Data from patent publication US12024715B2, “Compositions and methods for improved T cells” (Temple University-Of The Commonwealth System of Higher …, priority 2017, dated 2024).
At least one structure is not confirmed: it was looked up by name or label, or the drawing left a doubt.

Tested on: Id3, Id2, Eomes and Prdm1
Test: Real-time RT-PCR analysis of Ezh2-targeted genes in cultured Pmel-1 cells
Assay type: cell-based, mouse
Conditions: WT Pmel-1 cells, anti-CD3/CD28 Ab+IL-2, inhibitor treatment for 7 days
Method: Splenic and LN CD44loCD8+ TN cells were prepared as previously described (Zhang et al., 2002, J Immunol, 169:7111-7118; Zhang et al., 2005, Nat Med, 11:1299-1305). The purity was usually 90-95%. CD8+ T cell cultures were set up as previously described (He et al., 2013, Blood, 122:4119-4128; Tong et al., 2014, J Immunol, 192:5012-5022). In brief, CD44loCD8+ naive T cells (were cultured in the presence of anti-CD3 (2 μg/ml) and anti-CD28 (2.0 μg/ml) Abs together with recombinant human IL-2 (10 ng/ml; R&D Systems). In vivo sorted T cells and cultured T cells were restimulated with anti-CD3 Ab (1 μg/ml; BioLegend) or human gp100 (10^−6 M) for 5 hours before intracellular staining. Bone marrow-derived dendritic cells (DCs) were generated as previously described (Zhang et al., 2005, Nat Med, 11:1299-1305). For TAT-Cre experiments, 10^6 purified CD8^+ T cells or splenocytes were incubated in 100 μL serum-free RPMI containing 90 to 100 μg/mL TAT-Cre fusion protein for 16 hours at 37° C. […]
RNA was isolated with an RNeasy Mini kit (Qiagen) and cDNA was generated by reverse transcription (Applied Biosystems). […] Gene expression levels were calculated relative to the 18s gene. Data were collected and quantitatively analyzed on a Realplex sequence detection system (Eppendorf AG), and Applied Biosystems StepOne Plus Real-time PCR systems (Applied Biosystems).

In the case of `CO[C@H]1C[C@@H]2CC[C@@H](C)[C@@](O)(O2)C(=O)C(=O)N2CCCC[C@H]2C(=O)O[C@H]([C@H](C)C[C@@H]2CC[C@@H](O)[C@H](OC)C2)CC(=O)[C@H](C)/C=C(\C)[C@@H](O)[C@@H](OC)C(=O)[C@H](C)C[C@H](C)/C=C/C=C/C=C/1C` [Rapamycin], the Eomes expression was “increased” and the Id3 expression was “reduced”.
